From article PMC7862700
This is a selection; strong and weak results do not stand in their true shares. At the low end of the ranking, values are background and their order means little.

The chains behind the UniProt entries cited, without tags or fusion partners. Where a name states a change or a piece, a line headed by the entry shows the natural chain unless it says otherwise.
UniProt Q9Y603: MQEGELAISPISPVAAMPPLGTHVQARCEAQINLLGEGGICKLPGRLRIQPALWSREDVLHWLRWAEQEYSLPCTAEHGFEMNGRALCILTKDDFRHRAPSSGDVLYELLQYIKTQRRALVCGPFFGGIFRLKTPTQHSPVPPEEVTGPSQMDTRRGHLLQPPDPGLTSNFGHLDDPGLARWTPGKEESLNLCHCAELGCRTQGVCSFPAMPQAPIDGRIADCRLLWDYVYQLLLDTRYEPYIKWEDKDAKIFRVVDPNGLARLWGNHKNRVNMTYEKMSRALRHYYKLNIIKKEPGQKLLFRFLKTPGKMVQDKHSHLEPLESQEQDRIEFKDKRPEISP
UniProt P41212: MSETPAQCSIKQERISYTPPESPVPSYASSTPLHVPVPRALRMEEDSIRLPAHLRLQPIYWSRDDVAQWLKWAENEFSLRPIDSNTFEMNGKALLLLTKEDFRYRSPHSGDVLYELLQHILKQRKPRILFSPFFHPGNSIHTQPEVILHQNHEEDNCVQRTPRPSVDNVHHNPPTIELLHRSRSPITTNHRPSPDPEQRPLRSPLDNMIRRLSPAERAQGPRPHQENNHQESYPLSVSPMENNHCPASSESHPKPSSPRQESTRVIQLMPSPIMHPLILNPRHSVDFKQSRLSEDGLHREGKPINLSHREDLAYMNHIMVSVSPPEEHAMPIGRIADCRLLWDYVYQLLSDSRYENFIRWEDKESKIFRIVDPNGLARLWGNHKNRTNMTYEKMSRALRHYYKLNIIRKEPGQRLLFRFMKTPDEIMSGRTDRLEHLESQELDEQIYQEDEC

Legend:
Assay in all cases: DAPPL (digital affinity profiling via proximity ligation, sequencing)
Settings in all cases: 10 mM Tris-HCl pH 7.5, 50 mM NaCl, 1 mM DTT, 4% glycerol, room temperature, 30 min; GST-TFs on glutathione beads, 16-mer random dsDNA library, 0.1% …; high values mean tight binding; double strand, one strand shown; scale: fold enrichment (6-mer frequency, TF over GST control)
ELF3 = target: T1, ELF3 (UniProt P78545)
T1 sequence: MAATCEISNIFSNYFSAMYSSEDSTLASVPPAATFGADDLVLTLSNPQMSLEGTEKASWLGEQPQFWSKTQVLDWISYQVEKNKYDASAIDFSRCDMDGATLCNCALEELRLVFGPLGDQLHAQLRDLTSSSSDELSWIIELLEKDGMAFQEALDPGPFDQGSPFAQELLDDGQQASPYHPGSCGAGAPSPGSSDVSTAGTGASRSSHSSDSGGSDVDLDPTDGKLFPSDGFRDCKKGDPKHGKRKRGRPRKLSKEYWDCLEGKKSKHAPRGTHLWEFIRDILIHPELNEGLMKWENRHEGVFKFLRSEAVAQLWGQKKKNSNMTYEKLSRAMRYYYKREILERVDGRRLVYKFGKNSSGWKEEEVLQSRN

ETV7 = ETV7 (UniProt Q9Y603)
ETV6 = ETV6 (UniProt P41212)

Row | Sequence | binding signal (ELF3) | binding signal (ETV7) | binding signal (ETV6)
1 | AGGCCG | 0.476 | 0.507 | 0.488
2 | AAGACC | 0.888 | 0.787 | 0.898
3 | ACCGAG | 0.835 | 0.787 | 0.725
4 | AGACGG | 0.379 | 0.385 | 0.384
5 | GCAGTC | 0.378 | 0.503 | 0.439
6 | CAAGGC | 0.861 | 0.867 | 0.849
7 | ACGGGC | 0.795 | 0.865 | 0.837
8 | GGGGTT | 0.796 | 0.927 | 0.801
9 | AGGATC | 0.888 | 0.87 | 0.873
10 | TGAGGG | 0.719 | 0.63 | 0.652
11 | GGGTGC | 0.79 | 0.89 | 0.857
12 | GGTCAA | 0.912 | 0.987 | 0.925
13 | AGTCAG | 0.475 | 0.536 | 0.523
14 | GTCGGT | 0.268 | 0.351 | 0.283
15 | CGTGAG | 0.125 | 0.173 | 0.125
16 | GAGTAG | 0.557 | 0.584 | 0.473
17 | AGGTGG | 0.627 | 0.687 | 0.604
18 | CACGTG | 0.55 | 0.667 | 0.611

Row | Sequence | binding signal (ELF3) | binding signal (ETV7) | binding signal (ETV6)
19 | GGGTCT | 0.841 | 0.918 | 0.893
20 | GAACGA | 0.667 | 0.776 | 0.75
21 | AGCAGG | 0.904 | 0.888 | 0.957
22 | GATAGA | 0.686 | 0.894 | 0.744
23 | AGGAGC | 0.394 | 0.425 | 0.413
24 | CCTGTC | 0.989 | 1.03 | 0.928
25 | AGGTAG | 0.678 | 0.731 | 0.71
26 | GGCCGT | 0.355 | 0.413 | 0.366
27 | GATTGG | 0.879 | 0.779 | 0.821
28 | CGGGAT | 0.596 | 0.649 | 0.625
29 | GAGCAC | 0.727 | 0.704 | 0.729
30 | GAGCAT | 0.803 | 0.706 | 0.735
31 | TAGAGG | 0.822 | 0.846 | 0.823
32 | GAGGTT | 0.784 | 0.81 | 0.693
33 | AGGGAC | 0.852 | 0.77 | 0.729
34 | GGGGAC | 0.483 | 0.432 | 0.419
35 | GCATTG | 0.781 | 0.892 | 0.81
36 | CATGAG | 0.699 | 0.644 | 0.632

Given in markdown: part of the list above.

| Row | Sequence | binding signal (ELF3) | binding signal (ETV7) | binding signal (ETV6) |
| --- | --- | --- | --- | --- |
| 4 | AGACGG | 0.379 | 0.385 | 0.384 |
| 5 | GCAGTC | 0.378 | 0.503 | 0.439 |
| 6 | CAAGGC | 0.861 | 0.867 | 0.849 |
| 7 | ACGGGC | 0.795 | 0.865 | 0.837 |
| 8 | GGGGTT | 0.796 | 0.927 | 0.801 |
| 9 | AGGATC | 0.888 | 0.87 | 0.873 |
| 10 | TGAGGG | 0.719 | 0.63 | 0.652 |
| 11 | GGGTGC | 0.79 | 0.89 | 0.857 |
| 12 | GGTCAA | 0.912 | 0.987 | 0.925 |
